Results are given in words; binding and its absence hold for the method and conditions named. Some entries that bind do so weakly or less than the wild type.
Biological target: T1, COX3b (Tetrahymena thermophila) (UniProt Q950Y6)
T1 sequence: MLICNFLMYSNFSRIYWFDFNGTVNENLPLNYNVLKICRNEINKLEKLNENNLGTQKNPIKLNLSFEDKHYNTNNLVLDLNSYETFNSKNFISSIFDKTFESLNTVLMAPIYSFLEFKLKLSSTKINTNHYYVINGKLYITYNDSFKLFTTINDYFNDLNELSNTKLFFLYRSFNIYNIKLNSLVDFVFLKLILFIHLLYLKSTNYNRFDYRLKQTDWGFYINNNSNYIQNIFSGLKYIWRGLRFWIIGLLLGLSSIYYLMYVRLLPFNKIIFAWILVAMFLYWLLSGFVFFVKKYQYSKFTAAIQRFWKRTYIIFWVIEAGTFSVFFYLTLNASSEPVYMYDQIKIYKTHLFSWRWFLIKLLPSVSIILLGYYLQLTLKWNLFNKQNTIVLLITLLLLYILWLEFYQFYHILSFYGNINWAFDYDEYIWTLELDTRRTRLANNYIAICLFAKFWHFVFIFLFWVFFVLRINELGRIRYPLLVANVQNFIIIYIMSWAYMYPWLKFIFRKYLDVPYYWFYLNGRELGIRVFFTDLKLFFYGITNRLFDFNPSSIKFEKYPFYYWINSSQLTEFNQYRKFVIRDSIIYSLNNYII
Test: cryo-EM structure; single-particle cryo-EM of the native supercomplex co-purified from T. thermophila mitochondria; buffer D (25 mM HEPES-KOH pH 7.5, 25 mM KCl, 5 mM MgCl2, 0.1% w/v digitonin); 2.9 Å overall, masked refinements 2.6-3.0 Å; both purified

B1: COX3a (protein, UniProt Q950Y7 1-453)
chain: MTALFLHILWSISYIIINILYIFLSLLLSNNNEKIKQYNSNYFIKILLVLFYNKNLSFYKNLLSEDEISKIEFERLKNYPTLVLIHSNLNKLEKRNKIINSFINFKTKYRFYKFISTNFNLQTIIKNCNDKIIFSTLLYIVNLNYSFFYKTIKNTDLIVYLLANKFSILNDNIIVSKFNISKFNDYIKYINNTNSIDTYLENQIILGLNNNTNSNITKNINTKLLNSYSNLKNLVNITNNTFYLKKINDNYNTVINSEFLTYLKSNYKISFSASNIVKYLSDKSVNNSVILYLRKNKIFNKSRYSRNRQTYRTGAYWCLYVNIIAVVAFYFWFYKFTMNFGYLWWLLYSLILSFFFSRALKHRFYNPLNVMTEFKNGFMWFIIILINIFKPLLKLLENNYINLYNHLVIKYYQSFICNTLINKKKLEFNYILSSFKFIKELNNIIIISLNKLF
binding: binds

From PMC10060162, “Structural basis of mitochondrial membrane bending by the I–II–III2–IV2 supercomplex” (Nature, 2023)
